Assay results published in patent US20070225202A1, “Methods for Identifying Modulators of Active Kit Tyrosine Kinase Receptor” (priority 2003, published 2007).

Tested on: HMC1.1 cells (naturally expressing KITV560G)
Assay: cells
Conditions: Homo sapiens, 72 h, read-out: IC50, inhibition of proliferation

`Cc1ccc(NC(=O)c2ccc(CN3CCN(C)CC3)cc2)cc1Nc1nccc(-c2cccnc2)n1` [Gleevec] showed an IC50 of 0.06 µM.
